Assays:
Experiment in all cases: microbe, parasite or virus in culture
Assay type in all cases: cell-based
SARS-CoV-2 = conditions: Severe acute respiratory syndrome coronavirus 2, Vero C1008, read-out: IC50, infection rate of SARS-CoV-2
[1] = system: VSVΔG-SARS2-S (pseudo-type VSV with SARS-CoV-2 spike protein); conditions: Vesicular stomatitis virus, Vero C1008, 20 h, read-out: IC50, VSVΔG-SARS2-S infection
[2] = system: pseudo-typed VSV having a SARS-CoV spike protein (SARS-CoV-S); conditions: Vesicular stomatitis virus, Vero C1008, 20 h, read-out: IC50, infection with pseudo-typed VSV having SARS-CoV spike protein

## CCN(CC)CCOc1ccc(/C(=C(/Cl)c2ccccc2)c2ccccc2)cc1 [Clomifene, clomifene]
SARS-CoV-2
  IC50: 6.7 µM
[1]
  IC50: 4.4 µM
[2]
  IC50: 5.8 µM

Reference: patent US20230147364A1, “PROPHYLACTIC OR THERAPEUTIC AGENT FOR RNA VIRUS-RELATED DISEASES” (priority 2020, published 2023)
